PubChem BioAssay AID1904 – GNF, 2009
Aim: 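Novel clock parts and modifiers of the cell-autonomous circadian rhythm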 (follow-up of hits). Cell system: human U2OS osteosarcoma cells stably expressing a destabilised luciferase driven by the Bmal1 promoter. Reagents: siRNA pair against human genes, 12.5 nM (two siRNAs, 0.5 pmol each, per well). Timing: about 3 days after transfection, then luminescence recorded for about 4 days. Read-out: 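Bmal1 reporter light output measured every 2 hours over several days, detrended, then fitted to give period and amplitude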. Call rule: 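Active when retesting with individual siRNAs reproduced the period or amplitude change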. Calls: active = confirmed by single siRNAs; inactive = not confirmed.
This is not the whole library: the list holds selected reagents. 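Lists only primary-screen hits; phenotype classes come from fitted traces, and the underlying luminescence values are not given.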 The numbers tell different reagents against one gene apart.

gene knocked down	reagent	clock phenotype class	confirmed with single siRNAs	call
NOB1P	1	longer clock period; seen with two independent siRNA pairs for the gene	phenotype reproduced by individual siRNAs	active
NOB1P	2	longer clock period; seen with two independent siRNA pairs for the gene	phenotype reproduced by individual siRNAs	active
KIAA0052	1	higher rhythm amplitude; seen with two independent siRNA pairs for the gene	phenotype reproduced by individual siRNAs	active
KIAA0052	2	higher rhythm amplitude; seen with two independent siRNA pairs for the gene	phenotype reproduced by individual siRNAs	active
GIPC2	1	longer clock period; seen with two independent siRNA pairs for the gene	phenotype reproduced by individual siRNAs	active
GIPC2	2	longer clock period; seen with two independent siRNA pairs for the gene	phenotype reproduced by individual siRNAs	active
JUND	1	longer clock period; seen with two independent siRNA pairs for the gene	phenotype reproduced by individual siRNAs	active
JUND	2	longer clock period; seen with two independent siRNA pairs for the gene	phenotype reproduced by individual siRNAs	active
POLR2B	1	longer clock period; seen with two independent siRNA pairs for the gene	phenotype reproduced by individual siRNAs	active
POLR2B	2	longer clock period; seen with two independent siRNA pairs for the gene	phenotype reproduced by individual siRNAs	active
GRIA2	1	higher rhythm amplitude; seen with one siRNA pair in duplicate wells	phenotype not reproduced by individual siRNAs	inconclusive
GRIA2	2	higher rhythm amplitude; seen with one siRNA pair in duplicate wells	phenotype not reproduced by individual siRNAs	inconclusive
DDX56	1	shorter clock period; seen with one siRNA pair in duplicate wells	phenotype reproduced by individual siRNAs	active
DDX56	2	shorter clock period; seen with one siRNA pair in duplicate wells	phenotype reproduced by individual siRNAs	active
ASB5	1	longer clock period; seen with two independent siRNA pairs for the gene	phenotype reproduced by individual siRNAs	active
ASB5	2	longer clock period; seen with two independent siRNA pairs for the gene	phenotype reproduced by individual siRNAs	active
LHX1	1	longer clock period; seen with two independent siRNA pairs for the gene	phenotype reproduced by individual siRNAs	active
LHX1	2	longer clock period; seen with two independent siRNA pairs for the gene	phenotype reproduced by individual siRNAs	active
DKFZp761L1417	1	shorter clock period; seen with two independent siRNA pairs for the gene	phenotype reproduced by individual siRNAs	active
DKFZp761L1417	2	shorter clock period; seen with two independent siRNA pairs for the gene	phenotype reproduced by individual siRNAs	active
WNT2	1	longer clock period; seen with two independent siRNA pairs for the gene	phenotype reproduced by individual siRNAs	active
WNT2	2	longer clock period; seen with two independent siRNA pairs for the gene	phenotype reproduced by individual siRNAs	active
SF1	1	longer clock period; seen with two independent siRNA pairs for the gene	phenotype reproduced by individual siRNAs	active
FHIT	1	higher rhythm amplitude; seen with one siRNA pair in duplicate wells	phenotype reproduced by individual siRNAs	active
FHIT	2	higher rhythm amplitude; seen with one siRNA pair in duplicate wells	phenotype reproduced by individual siRNAs	active
CARD11	1	shorter clock period; seen with one siRNA pair in duplicate wells	phenotype not reproduced by individual siRNAs	inconclusive
CARD11	2	shorter clock period; seen with one siRNA pair in duplicate wells	phenotype not reproduced by individual siRNAs	inconclusive
BTNL8	1	longer clock period; seen with two independent siRNA pairs for the gene	not retested with individual siRNAs	
BTNL8	2	longer clock period; seen with two independent siRNA pairs for the gene	not retested with individual siRNAs	
BTC	1	higher rhythm amplitude; seen with one siRNA pair in duplicate wells	phenotype not reproduced by individual siRNAs	inconclusive
BTC	2	higher rhythm amplitude; seen with one siRNA pair in duplicate wells	phenotype not reproduced by individual siRNAs	inconclusive
FLJ10350	1	higher rhythm amplitude; seen with one siRNA pair in duplicate wells	phenotype reproduced by individual siRNAs	active
FLJ10350	2	higher rhythm amplitude; seen with one siRNA pair in duplicate wells	phenotype reproduced by individual siRNAs	active
PRPF4	1	longer clock period; seen with two independent siRNA pairs for the gene	phenotype reproduced by individual siRNAs	active
PRPF4	2	longer clock period; seen with two independent siRNA pairs for the gene	phenotype reproduced by individual siRNAs	active
EEIG1	1	longer clock period; seen with two independent siRNA pairs for the gene	not retested with individual siRNAs	
MGC31963	1	higher rhythm amplitude; seen with two independent siRNA pairs for the gene	phenotype reproduced by individual siRNAs	active
MGC31963	2	higher rhythm amplitude; seen with two independent siRNA pairs for the gene	phenotype reproduced by individual siRNAs	active
P2RY10	1	longer clock period; seen with two independent siRNA pairs for the gene	phenotype reproduced by individual siRNAs	active
P2RY10	2	longer clock period; seen with two independent siRNA pairs for the gene	phenotype reproduced by individual siRNAs	active
FLJ20257	1	longer clock period; seen with two independent siRNA pairs for the gene	phenotype reproduced by individual siRNAs	active
FLJ20257	2	longer clock period; seen with two independent siRNA pairs for the gene	phenotype reproduced by individual siRNAs	active
THRAP6	1	longer clock period; seen with two independent siRNA pairs for the gene	phenotype reproduced by individual siRNAs	active
THRAP6	2	longer clock period; seen with two independent siRNA pairs for the gene	phenotype reproduced by individual siRNAs	active
WDR9	1	higher rhythm amplitude; seen with one siRNA pair in duplicate wells	not retested with individual siRNAs	
Cry2	1	longer clock period; seen with two independent siRNA pairs for the gene	phenotype reproduced by individual siRNAs	active
Cry2	2	longer clock period; seen with two independent siRNA pairs for the gene	phenotype reproduced by individual siRNAs	active
Cry2	3	longer clock period; seen with two independent siRNA pairs for the gene	phenotype reproduced by individual siRNAs	active
Cry2	4	longer clock period; seen with two independent siRNA pairs for the gene	phenotype reproduced by individual siRNAs	active
BLNK	1	higher rhythm amplitude; seen with one siRNA pair in duplicate wells	phenotype reproduced by individual siRNAs	active
BLNK	2	higher rhythm amplitude; seen with one siRNA pair in duplicate wells	phenotype reproduced by individual siRNAs	active
SCHIP1	1	shorter clock period; seen with two independent siRNA pairs for the gene	phenotype reproduced by individual siRNAs	active
SCHIP1	2	shorter clock period; seen with two independent siRNA pairs for the gene	phenotype reproduced by individual siRNAs	active
SCAMP2	1	higher rhythm amplitude; seen with one siRNA pair in duplicate wells	phenotype reproduced by individual siRNAs	active
SCAMP2	2	higher rhythm amplitude; seen with one siRNA pair in duplicate wells	phenotype reproduced by individual siRNAs	active
ACTL6A	1	longer clock period; seen with two independent siRNA pairs for the gene	phenotype reproduced by individual siRNAs	active
ACTL6A	2	longer clock period; seen with two independent siRNA pairs for the gene	phenotype reproduced by individual siRNAs	active

An excerpt taken from the entries so far:
gene knocked down	reagent	clock phenotype class	confirmed with single siRNAs	call
LHX1	2	longer clock period; seen with two independent siRNA pairs for the gene	phenotype reproduced by individual siRNAs	active
DKFZp761L1417	1	shorter clock period; seen with two independent siRNA pairs for the gene	phenotype reproduced by individual siRNAs	active
DKFZp761L1417	2	shorter clock period; seen with two independent siRNA pairs for the gene	phenotype reproduced by individual siRNAs	active
WNT2	1	longer clock period; seen with two independent siRNA pairs for the gene	phenotype reproduced by individual siRNAs	active
WNT2	2	longer clock period; seen with two independent siRNA pairs for the gene	phenotype reproduced by individual siRNAs	active
SF1	1	longer clock period; seen with two independent siRNA pairs for the gene	phenotype reproduced by individual siRNAs	active
FHIT	1	higher rhythm amplitude; seen with one siRNA pair in duplicate wells	phenotype reproduced by individual siRNAs	active
FHIT	2	higher rhythm amplitude; seen with one siRNA pair in duplicate wells	phenotype reproduced by individual siRNAs	active
